{"source": "the supplement of paper PMC10338343", "note": "± gives the standard deviation. Only a part is listed here, and it is no random draw. Many entries were measured with a wide error.", "data": [{"system": "EfPiwi piRISC loaded with piRNA #1 (26 nt)", "assay": "pre-steady-state target cleavage rate (min^-1); guide: piRNA #1 5'p-UGAGGUAGUAGGUUGUAUAGUAUCCA; MIWI and MILI are mouse PIWI proteins and EfPiwi is from a freshwater sponge; tags in brackets are library labels; higher = faster piRNA-guided slicing of the target", "conditions": "auxiliary factor: 500 nM Ephydatia muelleri Gtsf1", "summary_of_the_method": "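The method was Cleave-'n-Seq, in which uncleaved targets from a transcribed, DNA-blocked target RNA library were sequenced after exposure to active affinity-purified piRISC carrying one synthetic guide, with or without GTSF1 partner protein. Reactions contained 0.1 nM library, 1 nM piRISC and, where present, 500 nM GTSF1 in HEPES–potassium acetate buffer at 33 °C for 0–8 or 0–960 min. Reads were normalised to depth and to weakly complementary targets, three trials were pooled, and k3 was capped at 0.0001 min^-1. The pre-steady-state cleavage rate came from a burst-and-steady-state fit.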", "values": [{"sequence": "GGAGAGGAUACUAUACAACGAACUACCUCA", "pre-steady-state target cleavage rate": "0.00227 ± 0.0025"}, {"sequence": "GGAGACCUAUGUAUACAUCCUACUACGUCA", "pre-steady-state target cleavage rate": "0.000445 ± 0.0062"}, {"sequence": "GGAGACGAUACUAUACAACCUACUACUUCA", "pre-steady-state target cleavage rate": "0.00983 ± 0.0039"}, {"sequence": "GGAGACCUAUGUAUACAUCCUACUAGCUCA", "pre-steady-state target cleavage rate": "0.000368 ± 0.0049"}, {"sequence": "GGAGACGAUACUUAUACAACCUACUACCUCA", "pre-steady-state target cleavage rate": "0.0473 ± 0.017"}, {"sequence": "GGAGAGGAUACUAAUGAACCUACUACCUCA", "pre-steady-state target cleavage rate": "0.000358 ± 0.011"}, {"sequence": "GGAGACCUAUGAAUACAACCUACUAACUCA", "pre-steady-state target cleavage rate": "0.000765 ± 0.0066"}, {"sequence": "GGAGACGAUACUAUAUAACCUACUACCUCA", "pre-steady-state target cleavage rate": "0.0091 ± 0.0042"}, {"sequence": "GGAGACCUAACUAUACAACCUACUACGAGA", "pre-steady-state target cleavage rate": "0.00515 ± 0.0032"}, {"sequence": "GGAGUGGAUACUUAACAACCUACUACCUCA", "pre-steady-state target cleavage rate": "0.0027 ± 0.0043"}, {"sequence": "GGAGAGGAUUCUAUACAACCUACUACCUGA", "pre-steady-state target cleavage rate": "0.00208 ± 0.0025"}, {"sequence": "GGAGACCAUAACUAUACAACCUACUACCUCA", "pre-steady-state target cleavage rate": "0.138 ± 0.043"}, {"sequence": "GGAGACCUUACUAUACUACCUACUACCUGA", "pre-steady-state target cleavage rate": "0.00187 ± 0.005"}, {"sequence": "GGAGUGGAUACUAUAACAACCUACUACCUCA", "pre-steady-state target cleavage rate": "0.0556 ± 0.021"}, {"sequence": "GGAGACCUAAGUAUACAACCUACUACCUGA", "pre-steady-state target cleavage rate": "0.00237 ± 0.0032"}, {"sequence": "GGAGACCUAUGUAUACAACCUACUAGCACA", "pre-steady-state target cleavage rate": "0.000224 ± 0.017"}, {"sequence": "GGAGACCUAACUAAACAUCCUACUACCUCA", "pre-steady-state target cleavage rate": "0.00285 ± 0.0043"}, {"sequence": "GGAGACCUAUCUAUACAUCCUACUACGUCA", "pre-steady-state target cleavage rate": "0.00198 ± 0.0039"}, {"sequence": "GGAGACCUUACUAAACAACCAACUACCUCA", "pre-steady-state target cleavage rate": "0.000342 ± 0.017"}, {"sequence": "GGAGACCUAACUAUACAACGUACUACCACA", "pre-steady-state target cleavage rate": "0.0055 ± 0.0049"}, {"sequence": "GGAGACGAUACUAUACAACCUACUAGCCUCA", "pre-steady-state target cleavage rate": "0.00485 ± 0.002"}, {"sequence": "GGAGUGGAUACUAUAGAACCUUCUACCUCA", "pre-steady-state target cleavage rate": "0.00334 ± 0.0018"}, {"sequence": "GGAGACGACACUAUACAACCUACUACCUCA", "pre-steady-state target cleavage rate": "0.114 ± 0.038"}, {"sequence": "GGAGAGCAUACUAUAGAACCUACUACCUCA", "pre-steady-state target cleavage rate": "0.00245 ± 0.0032"}]}]}
